# Among all 400,000 compounds or so, about 13,000 (3.2%) were called active. Inconclusive means that the source gave no clear call. Such entries were picked first, then a sample of the others. Calls follow the shape of the dose curve; as a rule, active = well fitted cell-killing curve with a large enough effect; inconclusive = small, poorly fitted or top-dose-only effect, or effect the other way; inactive = flat fitted curve, though single readings scatter. Where the call is inconclusive, the potency comes from a doubtful curve fit.
# Assay: qHTS assay for MDR1-selective chemotherapeutics: Primary screen using the drug-selected MDR subline cells KB-V1; also: nearly all actives have a fitted effect of over 60% in size
# Conditions: KB-V1 MDR cells viability, CellTiter-Glo, 72 h; activity change, negative = cytotoxicity: at 46.1 µM (top of the series)
# Method in brief: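 Potencies derive from concentration-effect curves fitted to normalized luminescence (CellTiter-Glo) of KB-V1 cells treated for 72 h at 37 degrees C in phenol-red-free DMEM containing 10% FBS.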
# % is scaled to controls: 0 for no effect and ±100 for the full control effect; potency is read from the fitted curve at half-maximal effect.
SMILES,Potency,"activity change, negative = cytotoxicity"
C=CCN(CC=C)C(=S)NC(=O)c1ccc([N+](=O)[O-])cc1,"inconclusive: 32.6 µM [cytotoxic, single point]",–
CC1(C)Cc2c(c(N3CCOCC3)nc3snc(N)c23)CO1,inactive,–
O=S(=O)(c1ccc(OCC(O)CN2CCCCC2)cc1)N1CCOCC1 (stereo not given),inactive,–
O=C(CN1CCN(c2ccc(C(F)(F)F)cn2)CC1)NCc1ccc2c(c1)OCO2,inactive,–
CC(C)c1ccc(NC(=O)Nc2nc(C(N)c3ccccc3)cs2)cc1 (stereo not given),"inconclusive: 29.1 µM [cytotoxic, single point]",–
CC(=NNC(=O)c1ccncc1)c1cccc(Br)c1,"inconclusive: 23.1 µM [rising, single point]",–
Cc1cc2cc(CCNC(=O)c3ccc(C)c([N+](=O)[O-])c3)c(=O)[nH]c2cc1C,active: 6.51 µM,–
COC(=O)c1ccc(S(=O)(=O)N(Cc2ccccc2)Cc2ccccc2)n1C,"inconclusive: 10.3 µM [cytotoxic, partial curve]",–
CCC(C)c1ccccc1OCCCNC1CCCC1 (stereo not given),"inconclusive: 29.1 µM [cytotoxic, single point]",–
Cc1cc(/C=C2\SC(=S)N(C)C2=O)c(C)n1-c1ccccc1O,"inconclusive: 29.1 µM [cytotoxic, single point]",–
CCNC(=S)NS(=O)(=O)c1ccc(CC)cc1,"inconclusive: 35.5 µM [cytotoxic, single point]",–
COC(=O)c1ccccc1NC(=O)C(C)Oc1ccccc1 (stereo not given),"inconclusive: 29.1 µM [cytotoxic, single point]",–
O=C(NCc1ccco1)c1ccc(=O)[nH]n1,"inconclusive: 14.6 µM [rising, partial curve]",–
CC1CCN(c2ccc(NC(=S)NC(=O)c3ccc(-c4cccc([N+](=O)[O-])c4)o3)cc2)CC1,inactive,–
COc1ccc(NC(=S)N(CCN(C)C)C(C)c2ccco2)cc1Cl (stereo not given),active: 23.1 µM,–
CC(C)c1ccc(NC(=O)c2ccccc2NC(=O)C2CCCCC2C(=O)O)cc1 (stereo not given),inactive,–
CC(=O)c1cccc(N(C(=O)c2ccccn2)C(C(=O)NC2CCCCC2)c2cccs2)c1 (stereo not given),"inconclusive: 11.6 µM [cytotoxic, partial curve]",–
CCn1c(=O)c2cc(C(=O)NCCCOC)sc2c2ccccc21,"inconclusive: 20.6 µM [cytotoxic, partial curve, poor fit]",–
CC(=O)NCc1ccc(-c2csc(-c3cccs3)n2)cc1,"inconclusive: 16.4 µM [cytotoxic, single point]",–
CCCCc1nnc(NC(=O)CCS(=O)(=O)c2ccc(Cl)cc2)s1,"inconclusive: 29.1 µM [rising, single point]",–
O=[N+]([O-])c1ccc(N/N=C/c2ccc[nH]2)cc1,"inconclusive: 18.4 µM [cytotoxic, single point]",–
CSc1ccc(/C=C(\C#N)C(=O)NC2CCCCC2C)cc1 (stereo not given),active: 16.4 µM,–
O=C(CCS(=O)(=O)c1ccc2c(c1)NC(=O)CS2)NCc1cccs1,"inconclusive: 13 µM [rising, single point]",–

SMILES,Potency,"activity change, negative = cytotoxicity"
O=C(NCCOc1ccccc1)C(=O)NCC1CCCO1 (stereo not given),–,inconclusive: -5.83%
COc1ccc(CNC(=O)CCC2N=C3c4ccccc4N=C(SCc4cccc(F)c4)N3C2=O)cc1 (stereo not given),inactive,–
Cc1cn([C@H]2C[C@H](O)[C@@H](CCC(=O)NCCN3CCCCC3)O2)c(=O)[nH]c1=O,"inconclusive: 29.1 µM [rising, single point]",–
CSC1=NSC2=NC(=O)/C(=C\c3cccs3)C(=N)N12,active: 4.61 µM,–
CCC(c1nnnn1CCOC)N1CCN(c2cccc(C(F)(F)F)c2)CC1 (stereo not given),"inconclusive: 10.3 µM [cytotoxic, partial curve]",–
Cc1cc(Br)ccc1OCCCCN1CCC(C)CC1,"inconclusive: 18.4 µM [cytotoxic, single point]",–
Cc1nn(CC(=O)c2ccc(Br)s2)c(C)c1[N+](=O)[O-],"inconclusive: 20.6 µM [cytotoxic, partial curve, poor fit]",–
O=C(Cc1ccc(S(=O)(=O)N2CCCCC2)cc1)NCc1ccc(Cl)cc1,"inconclusive: 16.4 µM [cytotoxic, single point]",–
O=C(CCSc1ccccc1)Nc1ccccc1C(=O)N1CCCC1,"inconclusive: 16.4 µM [cytotoxic, partial curve, poor fit]",–
CCOC(=O)c1ccccc1NS(=O)(=O)c1cnn(CC)c1C,"inconclusive: 29.1 µM [cytotoxic, single point]",–
CCCN(CCC)C(=O)Cn1nnc2sc(-c3ccccc3)cc2c1=O,inactive,–
Cc1cc(C(=O)OCC(=O)NCc2ccco2)c(C)n1-c1ccccc1,active: 2.59 µM,–
Cc1cc(Nc2cccc(Cl)c2)c2ccccc2n1,"inconclusive: 10.3 µM [cytotoxic, partial curve, poor fit]",–
CCN1C(=O)CSc2ccc(C(=O)NC3CCCCC3)cc21,inactive,–
CCCCSC1=C(C#N)C(c2ccccc2C)C(C(=O)OCC)C(=O)N1 (stereo not given),"inconclusive: 23.1 µM [cytotoxic, single point]",–
Nc1ncnc(Sc2ncccn2)c1[N+](=O)[O-],"inconclusive: 29.1 µM [cytotoxic, single point]",–
O=c1[nH][nH]c(-c2ccccc2)c1C=Nc1ccc(OC(F)(F)F)cc1,"inconclusive: 2.31 µM [rising, full curve, poor fit]",–
COc1ccc(N2C(=O)c3ccccc3NC2c2ccc(OC)c(COc3ccccn3)c2)cc1 (stereo not given),"inconclusive: 20.6 µM [cytotoxic, single point]",–
CCc1ccc(C(=O)Nc2nc(C)cs2)s1,inactive,–
N/C(=N\OC(=O)CCC1CCCCC1)c1cccc([N+](=O)[O-])c1,"inconclusive: 29.1 µM [rising, single point]",–
COc1ccc(NC(=O)C2Cc3c(-c4ccccc4Oc4ccccc4)ccnc3O2)cc1OC (stereo not given),"inconclusive: 20.6 µM [cytotoxic, single point]",–
C=CCc1cccc(CNc2nc3ccccc3n2CCC)c1O,"inconclusive: 32.6 µM [cytotoxic, partial curve, poor fit]",–

# One compound at a time, as listed above. Values in the order: Potency	activity change, negative = cytotoxicity
# O=c1[nH][nH]c(-c2ccccc2)c1C=Nc1ccc(OC(F)(F)F)cc1 is entered as inconclusive: 2.31 µM [rising, full curve, poor fit]	–
# COc1ccc(N2C(=O)c3ccccc3NC2c2ccc(OC)c(COc3ccccn3)c2)cc1 (stereo not given) is entered as inconclusive: 20.6 µM [cytotoxic, single point]	–
# O=C(Cc1ccc(S(=O)(=O)N2CCCCC2)cc1)NCc1ccc(Cl)cc1 is entered as inconclusive: 16.4 µM [cytotoxic, single point]	–

# Reference: PubChem BioAssay AID1347076 (National Center for Advancing Translational Sciences (NCATS), 2019)
